Results as given in patent US8759308B2, “RNAi probes targeting cancer-related proteins” (The University of British Columbia, priority 2002, dated 2014).
Some entries share one result that the patent states for a list of compounds. d = 2'-deoxy (DNA); r = 2'-OH (RNA)

System: PC3 cells
Assay: Paclitaxel chemosensitivity of PC3 cells after siRNA, MTT assay
Assay type: cell-based, human
Details: siRNA then Paclitaxel for 2 days

Cl-III: clusterin siRNA duplex, SEQ. ID No: 64 and 65; targets region 1620 nts downstream of initiation codon (chain 1 CUAAUUCAAUAAAACUGUCTT; chain 2 GACAGUUUUAUUGAAUUAGTT; sugars from the 5' end r19 d2, backbone not given here)
reduction of IC50 of Paclitaxel: more than 90%

Cl-V: clusterin siRNA duplex targeting the human CLU transcription initiation site; Table 7 Cl-IV, SEQ. ID No: 67 and 68 (chain 1 AUGAUGAAGACUCUGCUGC; chain 2 GCAGCAGAGUCUUCAUCAU; RNA, backbone not given here) [clusterin siRNA duplex targeting the human CLU transcription initiation site; ID No: 67 and 68]
reduction of IC50 of Paclitaxel: more than 90%
